From patent publication US8828401B2 (Pfizer Inc., priority 2011, dated 2014)

Experiment: general procedure: solution-phase peptide synthesis; HATU
[1] = coupling step, HPLC (Protocol A), TFA salt

Q: Which “final HPLC purity” value [1] does the source give for “2-methyl-L-prolyl-N-[(3R,4S,5S)-1-{(2S)-2-[(1R,2R)-3-{[(1S,2R)-1-hydroxy-1-phenylpropan-2-yl]amino}-1-methoxy-2-methyl-3-oxopropyl]pyrrolidin-1-yl}-3-methoxy-5-methyl-1-oxoheptan-4-yl]-N-methyl-L-valinamide, trifluoroacetic acid salt” here?
A: >98%

Q: And the step yield (coupling step, TFA salt)?
A: 86%

Q: With “1,2-dimethyl-L-prolyl-N-[(3R,4S,5S)-3-methoxy-1-{(2S)-2-[(1R,2R)-1-methoxy-2-methyl-3-oxo-3-(pentafluorophenoxy)propyl]pyrrolidin-1-yl}-5-methyl-1-oxoheptan-4-yl]-N-methyl-L-valinamide” as the substance, how does the step yield (late stage modification step) read?
A: 97%

Q: With “N-[(9H-fluoren-9-ylmethoxy)carbonyl]-2-methylalanyl-N-[(3R,4S,5S)-1-{(2S)-2-[(1R,2R)-2-carboxy-1-methoxypropyl]pyrrolidin-1-yl}-3-methoxy-5-methyl-1-oxoheptan-4-yl]-N-methyl-L-valinamide” as the substance, how does the step yield (coupling step, run 1) read?
A: 83%

Q: What about the step yield (coupling step, run 2) of the same substance?
A: 92%

Q: What does the source list for “1,2-dimethyl-D-prolyl-N-[(3R,4S,5S)-1-{(2S)-2-[(1R,2R)-2-carboxy-1-methoxypropyl]pyrrolidin-1-yl}-3-methoxy-5-methyl-1-oxoheptan-4-yl]-N-methyl-L-valinamide, trifluoroacetic acid salt”?
A: step yield (coupling step): 57.5%; final HPLC purity (coupling step, HPLC Protocol X): 98%

Q: What does the source list for “tert-butyl (2S)-2-{[(2S)-1-{[(3R,4S,5S)-3-methoxy-1-{(2S)-2-[(1R,2R)-1-methoxy-2-methyl-3-oxo-3-{[(1S)-2-phenyl-1-(1,3-thiazol-2-yl)ethyl]amino}propyl]pyrrolidin-1-yl}-5-methyl-1-oxoheptan-4-yl](methyl)amino}-3-methyl-1-oxobutan-2-yl]carbamoyl}”?
A: step yield (coupling step): 62%; final HPLC purity (coupling step, HPLC Protocol V): 95%

Q: For “2-methyl-L-prolyl-N-[(3R,4S,5S)-1-{(2S)-2-[(1R,2R)-3-{[2-(cyclohepta-2,4,6-trien-1-yl)ethyl]amino}-1-methoxy-2-methyl-3-oxopropyl]pyrrolidin-1-yl}-3-methoxy-5-methyl-1-oxoheptan-4-yl]-N-methyl-L-valinamide, formic acid salt”, which “final HPLC purity” value (late stage modification step, HPLC Protocol U) is on record?
A: purity >90%

Q: What about the step yield (late stage modification step, over two steps) of the same substance?
A: 57% over two steps

Q: For “N,2-dimethylalanyl-N-{(1S,2R)-4-{(2S)-2-[(1R,2R)-3-{[(1S)-2-amino-1-benzyl-2-oxo ethyl]amino}-1-methoxy-2-methyl-3-oxopropyl]pyrrolidin-1-yl}-2-methoxy-1-[(1S)-1-methylpropyl]-4-oxobutyl}-N-methyl-L-valinamide, trifluoroacetic acid salt”, which step yield (late stage modification step, TFA salt) is on record?
A: 20%

Q: For “N˜2˜-[2,2-dimethyl-3-(methylamino)propanoyl]-N-{(1S,2R)-2-methoxy-4-{(2S)-2-[(1R,2R)-1-methoxy-2-methyl-3-oxo-3-{[(1S)-2-phenyl-1-(1,3-thiazol-2-yl)ethyl]amino}propyl]pyrrolidin-1-yl}-1-[(1S)-1-methylpropyl]-4-oxobutyl}-N-methyl-L-valinamide”, which step yield (coupling step, TFA salt) is on record?
A: 41%

Q: Which results are given for “methyl N-{(2R,3R)-3-methoxy-3-[(2S)-1-{(3R,4S,5S)-3-methoxy-5-methyl-4-[methyl(N-{[(2R)-2-methylpiperidin-2-yl]carbonyl}-L-valyl)amino]heptanoyl}pyrrolidin-2-yl]-2-methylpropanoyl}-L-phenylalaninate, trifluoroacetic acid salt”?
A: final HPLC purity [1]: 89%; step yield (coupling step, TFA salt): 33%

Q: For “N-[(9H-fluoren-9-ylmethoxy)carbonyl]-N,2-dimethylalanyl-N-[(3R,4S,5S)-1-{(2S)-2-[(1R,2R)-3-{[(1S)-1-carboxy-2-phenylethyl]amino}-1-methoxy-2-methyl-3-oxopropyl]pyrrolidin-1-yl}-3-methoxy-5-methyl-1-oxoheptan-4-yl]-N-methyl-L-valinamide”, which step yield (coupling step) is on record?
A: 41%
